From patent US4590193A, “3-(2-(4-phenylpiperazinylethyl)anilino)-isobenzofuranones, their method of preparation and their use as antihypertensive and antiallergic drugs” (Societe Cortial, S.A., priority 1982, dated 1986)
pIC50: −log10 of the molar value.

System: contractions induced by serotonin on an isolated guinea pig ileum
Assay: In vitro antiserotonin activity: inhibition of serotonin-induced contractions of isolated guinea pig ileum
Format: cell-based
Conditions: Cavia porcellus; serotonin 5.10^-7 g/ml; time of contact 3 mm
Source text: The products of this invention are competitive antagonists of histamine.

Structure (SMILES): CN1CCC(=C2c3ccccc3C=Cc3ccccc32)CC1 [Cyproheptadine, reference compound]
- pIC50: 6.85
